For the test, the target named is HDAC1 (human (endogenous in AGS)) (UniProt Q13547). The experiment in a line: co-IP; lysates of AGS cells treated with 10 ng/ml recombinant IL1B or left untreated; 200 mM NaCl, 20 mM Tris-HCl pH 7.5, 1% Triton X-100, 1 mM DTT; immunoprecipitated overnight with anti-HDAC1 or anti-p300 antibody, Protein-G sepharose; blotted with anti NFkB p65 antibody; rabbit normal IgG as control.

Protein sequences, listed by entry. Tags and fused reporters are not part of them.
UniProt Q13547: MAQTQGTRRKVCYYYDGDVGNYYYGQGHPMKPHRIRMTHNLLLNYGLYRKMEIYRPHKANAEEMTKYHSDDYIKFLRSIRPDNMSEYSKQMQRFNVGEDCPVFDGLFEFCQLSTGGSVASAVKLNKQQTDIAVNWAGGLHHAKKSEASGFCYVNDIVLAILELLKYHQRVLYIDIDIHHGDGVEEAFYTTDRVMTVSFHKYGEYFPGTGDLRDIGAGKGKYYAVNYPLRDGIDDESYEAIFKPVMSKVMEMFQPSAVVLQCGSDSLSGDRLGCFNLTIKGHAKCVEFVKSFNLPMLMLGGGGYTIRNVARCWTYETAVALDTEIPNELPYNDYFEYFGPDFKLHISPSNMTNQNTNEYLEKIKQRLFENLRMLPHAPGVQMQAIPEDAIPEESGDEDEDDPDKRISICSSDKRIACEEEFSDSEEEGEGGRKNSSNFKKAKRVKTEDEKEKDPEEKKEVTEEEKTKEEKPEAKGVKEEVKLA
UniProt Q04206: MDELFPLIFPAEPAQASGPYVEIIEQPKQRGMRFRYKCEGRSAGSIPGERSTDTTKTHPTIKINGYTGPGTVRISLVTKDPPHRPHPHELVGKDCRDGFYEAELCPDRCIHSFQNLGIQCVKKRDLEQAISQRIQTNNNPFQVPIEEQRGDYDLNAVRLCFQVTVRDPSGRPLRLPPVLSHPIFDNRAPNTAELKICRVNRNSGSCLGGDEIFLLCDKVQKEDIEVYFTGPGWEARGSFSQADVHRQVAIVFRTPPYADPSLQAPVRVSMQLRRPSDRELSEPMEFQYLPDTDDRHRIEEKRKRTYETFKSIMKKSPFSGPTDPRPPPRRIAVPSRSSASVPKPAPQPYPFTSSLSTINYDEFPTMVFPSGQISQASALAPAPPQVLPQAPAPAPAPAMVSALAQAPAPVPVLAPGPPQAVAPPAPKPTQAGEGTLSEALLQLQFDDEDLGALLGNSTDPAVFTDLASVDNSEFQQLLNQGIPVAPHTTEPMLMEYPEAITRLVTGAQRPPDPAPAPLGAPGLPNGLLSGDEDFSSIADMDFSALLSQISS

No constants are given. Whether binding was seen depends on the method and setting. In cells and extracts the contact can be indirect. Some binding calls cover weakened binding; strength is not graded here.

Turning to NFkB p65 (from UniProt Q04206 1-551), the binding entry is “binds”.

These data come from PMC3751843.
